PubChem BioAssay AID602196, INSERM | 2012

Screen: 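Modifiers of cisplatin sensitivity in A549 cells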
System: human A549 lung cancer cells
Reagents: siRNA pair against human genes
Duration: 48 h transfection before cisplatin; time from cisplatin to read-out not stated
Treatment: cisplatin at a dose killing half of control-siRNA cells; exact dose and duration not given
Measured: 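Shift in cisplatin death relative to control siRNA, from -50 (all cells die) to +50 (no cells die); siRNAs harmful on their own scored 0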
Reading the numbers: two-siRNA summed score (-2 to +2): higher = both siRNAs protect from cisplatin killing; -2 means both sensitise; mean protection from cisplatin (shift in death) and protection from cisplatin (shift in death), siRNA C and protection from cisplatin (shift in death), siRNA D: higher = protection from cisplatin killing
Hit rule: 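Each siRNA scores 0 if harmful alone by LDH or WST-1, otherwise +1 if it reduces and -1 if it increases cisplatin killing; a gene is active when both siRNAs agree (sum +2 or -2)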
Meaning of the calls: active = both siRNAs shift cisplatin killing the same way; inactive = no consistent shift, or siRNA harmful alone
Here is a random part of about 23,000 reagents. 455 of them (2%) were called active. 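Active includes both protection and sensitisation; some change values fall well beyond the stated -50 to +50 range.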 Not given: the amount of reagent.

Gene	PubChem SID	two-siRNA summed score (-2 to +2)	mean protection from cisplatin (shift in death) (%)	protection from cisplatin (shift in death), siRNA C (%)	protection from cisplatin (shift in death), siRNA D (%)	activity call
LOC440949	SID131518473	0	20.2	26	14.5	inactive
LOC338914	SID131521584	1	14.1	19.6	8.6	inactive
EMP2	SID131521283	1	12.9	8.5	17.3	inactive
PES1	SID131515920	0	9.9	12	7.8	inactive
FBN3	SID131504144	0	-6.4	-9	-3.7	inactive
LOC390669	SID131517733	0	14.5	18.3	10.8	inactive
MAD2L1	SID131506655	0	-1.2	6.4	-8.7	inactive
DMXL1	SID131506428	0	-1.5	-10.2	7.1	inactive
KRTAP13-4	SID131518825	0	29.8	2.7	56.9	inactive
LOC442626	SID131518286	0	17.9	4.7	31.1	inactive
SSPN	SID131514727	0	8.2	11.4	5	inactive
LOC390278	SID131516950	0	12	17	7.1	inactive
FAM222A	SID131508441	0	1.1	5.5	-3.4	inactive
CCDC167	SID131505255	0	-3.5	-14.3	7.4	inactive
GPRC6A	SID131501552	-1	-9.1	-8	-10.1	inactive
SMARCD2	SID131504334	0	-5.7	-17.8	6.5	inactive
SPON2	SID131523051	2	17.9	17.1	18.8	active
IL20RA	SID131510199	0	3	13	-7	inactive
ANKRD18A	SID131512156	0	5.2	1.5	8.8	inactive
KIFC3	SID131500933	-1	-14	1.6	-29.7	inactive
ME3	SID131501052	-1	-12.9	-14	-11.7	inactive
ME3	SID131509890	0	2.6	-6.8	12.1	inactive
CLN3	SID131504776	0	-4.5	-2.2	-6.8	inactive
SECISBP2	SID131502295	-1	-3.6	-22.7	15.4	inactive
ISG20	SID131522801	1	24.8	44.1	5.5	inactive
KCTD12	SID131503578	0	-9.1	-4	-14.3	inactive
KIRREL3-AS3	SID131512601	0	5.7	14.6	-3.2	inactive
LOC348801	SID131517597	0	14	17.3	10.7	inactive
LOC401357	SID131522993	2	16.2	13.7	18.7	active
ATP6V1F	SID131506554	0	-1.3	1.8	-4.5	inactive
PDCD2	SID131522105	1	16.3	9.1	23.4	inactive
LOC440096	SID131510605	0	3.4	5.5	1.3	inactive
LOC387771	SID131521074	1	12.1	9.8	14.4	inactive
SLC7A5P1	SID131520165	1	8.9	-0.2	18.1	inactive
POLE4	SID131508141	0	0.7	-3.8	5.1	inactive
TPRN	SID131517432	0	13.4	-1.4	28.2	inactive
IFNAR2	SID131505901	0	-2.4	6.5	-11.3	inactive
LOC401358	SID131512389	0	5.4	0.5	10.4	inactive
LOC441188	SID131515174	0	8.8	12.5	5	inactive
LOC388338	SID131512852	0	5.9	5.6	6.3	inactive
SLC51A	SID131519915	1	8	11.2	4.8	inactive
LOC387784	SID131520845	1	11.3	5.9	16.6	inactive

Laid out differently: results already given
SPON2 [SID131523051]: two-siRNA summed score (-2 to +2) = 2; mean protection from cisplatin (shift in death) (%) = 17.9; protection from cisplatin (shift in death), siRNA C (%) = 17.1; protection from cisplatin (shift in death), siRNA D (%) = 18.8; activity call = active
IL20RA [SID131510199]: two-siRNA summed score (-2 to +2) = 0; mean protection from cisplatin (shift in death) (%) = 3; protection from cisplatin (shift in death), siRNA C (%) = 13; protection from cisplatin (shift in death), siRNA D (%) = -7; activity call = inactive
ANKRD18A [SID131512156]: two-siRNA summed score (-2 to +2) = 0; mean protection from cisplatin (shift in death) (%) = 5.2; protection from cisplatin (shift in death), siRNA C (%) = 1.5; protection from cisplatin (shift in death), siRNA D (%) = 8.8; activity call = inactive
KIFC3 [SID131500933]: two-siRNA summed score (-2 to +2) = -1; mean protection from cisplatin (shift in death) (%) = -14; protection from cisplatin (shift in death), siRNA C (%) = 1.6; protection from cisplatin (shift in death), siRNA D (%) = -29.7; activity call = inactive
ME3 [SID131501052]: two-siRNA summed score (-2 to +2) = -1; mean protection from cisplatin (shift in death) (%) = -12.9; protection from cisplatin (shift in death), siRNA C (%) = -14; protection from cisplatin (shift in death), siRNA D (%) = -11.7; activity call = inactive

The list goes on:
Gene	PubChem SID	two-siRNA summed score (-2 to +2)	mean protection from cisplatin (shift in death) (%)	protection from cisplatin (shift in death), siRNA C (%)	protection from cisplatin (shift in death), siRNA D (%)	activity call
LOC388947	SID131504991	0	-4	-16.8	8.7	inactive
TLR6	SID131502356	-1	-3.2	7.3	-13.6	inactive
DACH1	SID131521862	1	15.2	16.4	14	inactive
KLF5	SID131509971	0	2.7	-12.5	17.9	inactive
AGFG2	SID131506282	0	-1.7	-9.6	6.1	inactive
GIMAP6	SID131502583	-1	-0.5	6.1	-7.1	inactive
STEEP1	SID131516213	0	10.5	11.4	9.5	inactive
AIF1	SID131500415	-2	-10.4	-7.7	-13	active
MAFB	SID131500604	-1	-19.8	-26.1	-13.4	inactive
NMRAL1	SID131514566	0	7.9	11.6	4.3	inactive
SPEG	SID131521543	1	13.9	20.8	7	inactive
LOC441107	SID131521008	1	11.8	14	9.7	inactive
LOC441833	SID131521280	1	12.9	12.2	13.6	inactive
CMBL	SID131520374	1	9.7	11.7	7.7	inactive
PAQR3	SID131512841	0	5.9	-10.5	22.3	inactive
SLC13A5	SID131507752	0	0.2	-7.8	8.3	inactive
LOC441303	SID131515243	0	8.9	-0.5	18.2	inactive
LOC154323	SID131509846	0	2.6	1.7	3.5	inactive
REEP2	SID131504564	0	-5.1	-4.1	-6.1	inactive
OR1I1	SID131516113	0	10.3	11.1	9.4	inactive
AGR3	SID131504715	0	-4.7	-1	-8.4	inactive
TMCC3	SID131508122	0	0.7	-6.3	7.6	inactive
ANKHD1-EIF4EBP3	SID131518347	0	18.5	19.9	17.1	inactive
MMP21	SID131515584	0	9.4	14.5	4.3	inactive
LOC440111	SID131511000	0	3.9	-4.9	12.6	inactive
RPL31	SID131518861	0	33	34.2	31.8	inactive
ZXDA	SID131512373	0	5.4	19	-8.2	inactive
ANKRD44	SID131502436	-1	-2.3	-14.9	10.4	inactive
AIP	SID131500858	-1	-15.1	-5.1	-25.1	inactive
MMP3	SID131518919	1	-5.4	-21.6	10.8	inactive
CORO2B	SID131520116	1	8.7	0.9	16.6	inactive
